Source: patent US10314821B2, “Crystalline forms of 4-cyano-N-(2-(4,4-dimethylcyclohex-1-en-1-yl)-6-(2,2,6,6-tetramethyltetrahydro-2H-pyran-4-yl)pyridin-3-yl)-1H-imidazole-2-carboxamide” (Janssen Pharmaceutica NV, priority 2016, dated 2019)
Some entries share one result that the patent states for a list of compounds.

Experiment: Competitive slurry studies in water, form by XRPD
Type: physicochemical
Conditions: transferred to 50° C. after 2 days at RT
Description: Competitive slurry studies of Compound A, Forms II, IIA, IIB, III, IV, V, and VI were conducted at RT (room temperature, about 20° C.) and 50° C. in water. […] A small portion of the slurry was transferred to 50° C. after 2 days and analyzed using powder X-ray after being slurred at 50° C. for 2 hours (where a sample of the slurry was placed on an XRPD sample holder, the solvent allowed to evaporate under ambient conditions to yield a residue, and an XRPD measured for the residue). Complete conversion to Form I took place within 2 hours of heating.

CC1(C)CC=C(c2nc(C3CC(C)(C)OC(C)(C)C3)ccc2NC(=O)c2nc(C#N)c[nH]2)CC1 [Compound A, Form II, 4-cyano-N-[2-(4,4-dimethylcyclohex-1-en-1-yl)-6-(2,2,6,6-tetramethyltetrahydro-2H-pyran-4-yl)pyridine-3-yl]-1H-imidazole-2-carboxamide]
Time to complete conversion to Form I: ≤ 2 h
